Assay [1] deals with FLAG-tagged Runx1 (pFLAG-CMV-2) (murine) (UniProt Q03347). Description: co-IP; COS-7 cells transiently transfected; immunoprecipitation with M2 anti-FLAG on protein G-sepharose at 4°C, blot with anti-Pim-1; data not shown.
Assay [2] deals with MYC-tagged Runx3 (pAMC-Runx3) (murine) (UniProt Q64131). Description: co-IP; COS-7 cells transiently transfected; lysate in co-IP buffer (50 mM Tris-HCl pH 7.5, 150 mM NaCl, 0.1 mM EDTA, 0.5 % NP-40, 20% glycerol); immunoprecipitation with anti-MYC on protein G-sepharose at 4°C, blot with anti-Pim-1.
The target of assay [3] is MYC-tagged Runx1 (pAMC-Runx1) (murine) (UniProt Q03347). The description is as above.
The target in assay [4] is T1, GST-B19 fusion protein (amino acids 264-404 of human RUNX3 fused to GST) (human) (UniProt Q13761).
T1 sequence: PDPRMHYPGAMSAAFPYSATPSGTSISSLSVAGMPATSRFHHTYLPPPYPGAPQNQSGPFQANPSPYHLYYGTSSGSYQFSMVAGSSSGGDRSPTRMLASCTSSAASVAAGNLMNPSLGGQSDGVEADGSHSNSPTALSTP
Description: pull-down; GST pull-down with bacterially produced GST-B19 and in vitro translated 35S-labeled Pim-1; data not shown; only the target purified.

By UniProt entry, the sequences of proteins in these tests, tags left out.
UniProt Q03347: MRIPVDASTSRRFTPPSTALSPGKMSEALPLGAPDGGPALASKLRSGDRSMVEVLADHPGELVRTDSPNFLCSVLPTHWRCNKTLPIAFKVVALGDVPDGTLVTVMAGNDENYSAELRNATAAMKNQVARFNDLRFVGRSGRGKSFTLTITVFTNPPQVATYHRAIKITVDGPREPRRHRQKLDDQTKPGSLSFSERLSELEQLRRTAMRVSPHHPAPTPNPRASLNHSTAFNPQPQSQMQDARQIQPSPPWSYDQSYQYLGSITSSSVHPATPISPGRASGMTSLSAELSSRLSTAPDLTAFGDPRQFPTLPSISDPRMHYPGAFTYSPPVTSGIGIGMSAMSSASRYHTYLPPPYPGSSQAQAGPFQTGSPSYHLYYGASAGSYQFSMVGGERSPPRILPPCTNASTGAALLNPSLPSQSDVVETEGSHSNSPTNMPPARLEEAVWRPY
UniProt P06803: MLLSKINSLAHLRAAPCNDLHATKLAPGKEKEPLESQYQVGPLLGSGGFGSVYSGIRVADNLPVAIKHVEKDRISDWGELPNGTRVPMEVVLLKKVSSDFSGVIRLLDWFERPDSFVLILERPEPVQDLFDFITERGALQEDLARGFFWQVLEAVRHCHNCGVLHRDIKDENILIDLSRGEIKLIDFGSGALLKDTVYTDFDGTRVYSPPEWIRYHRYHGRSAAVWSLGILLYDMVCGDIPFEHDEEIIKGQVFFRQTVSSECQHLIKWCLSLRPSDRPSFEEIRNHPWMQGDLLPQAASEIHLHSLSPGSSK

No constants are given. Whether binding was seen depends on the method and setting. In cells and extracts the contact can be indirect. Some binding calls cover weakened binding; strength is not graded here. For some of these results: Sequences can lack the tags named with a protein.

In the case of “Pim-1 expressed from pSV-pim-1 in COS-7 cells (from UniProt P06803 1-313) (enzyme)”, the binding entry in assay [1], in assay [2] and in assay [3] was “binds” throughout.

Consider “in vitro translated 35S-labeled Pim-1 protein (from UniProt P06803 1-313) (enzyme)”, for which, in assay [4], the binding result is reported as “binds”.

Values taken from paper PMC1473194.
